These are yes or no findings as the source states them, for the method shown. Binding seen in cells or lysates may run through a third protein. Some entries that bind do so weakly or less than the wild type. Where a sequence is shown, tags or fusion partners need not be part of it.
Legend:
GST-STIP (human) = biological target: T1, GST-STIP (human) (UniProt Q9UBB9); assay: pull-down; MagneGST Pull-Down System; purified GST-STIP or GST immobilised on glutathione resin at 4 °C overnight; in vitro translated prey (His-USP7, Mdm2 or p53) incubated for 1 h; three washes; WB; only the target purified
T1 sequence: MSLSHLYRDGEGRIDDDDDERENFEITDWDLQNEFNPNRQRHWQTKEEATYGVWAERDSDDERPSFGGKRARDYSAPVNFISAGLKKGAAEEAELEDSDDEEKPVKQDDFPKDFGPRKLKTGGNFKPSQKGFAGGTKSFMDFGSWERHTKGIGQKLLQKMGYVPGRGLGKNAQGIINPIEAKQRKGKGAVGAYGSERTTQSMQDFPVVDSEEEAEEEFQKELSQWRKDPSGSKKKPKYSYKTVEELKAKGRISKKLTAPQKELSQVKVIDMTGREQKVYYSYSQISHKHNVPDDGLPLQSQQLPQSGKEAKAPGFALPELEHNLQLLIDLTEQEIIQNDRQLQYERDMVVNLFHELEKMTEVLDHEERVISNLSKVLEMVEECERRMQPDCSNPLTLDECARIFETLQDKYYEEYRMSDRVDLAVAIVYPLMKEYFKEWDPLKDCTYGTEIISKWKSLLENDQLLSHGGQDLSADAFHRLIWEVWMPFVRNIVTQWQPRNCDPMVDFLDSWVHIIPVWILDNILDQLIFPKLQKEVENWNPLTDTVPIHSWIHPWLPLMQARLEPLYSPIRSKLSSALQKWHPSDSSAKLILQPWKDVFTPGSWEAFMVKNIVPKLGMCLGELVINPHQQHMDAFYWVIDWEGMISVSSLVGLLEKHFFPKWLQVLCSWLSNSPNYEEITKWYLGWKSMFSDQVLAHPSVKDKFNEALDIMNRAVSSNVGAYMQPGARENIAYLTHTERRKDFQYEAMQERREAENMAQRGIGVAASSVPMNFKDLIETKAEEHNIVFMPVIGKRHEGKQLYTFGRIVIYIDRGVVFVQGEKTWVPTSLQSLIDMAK

By UniProt entry, the sequences of proteins in these tests, tags left out.
UniProt Q00987: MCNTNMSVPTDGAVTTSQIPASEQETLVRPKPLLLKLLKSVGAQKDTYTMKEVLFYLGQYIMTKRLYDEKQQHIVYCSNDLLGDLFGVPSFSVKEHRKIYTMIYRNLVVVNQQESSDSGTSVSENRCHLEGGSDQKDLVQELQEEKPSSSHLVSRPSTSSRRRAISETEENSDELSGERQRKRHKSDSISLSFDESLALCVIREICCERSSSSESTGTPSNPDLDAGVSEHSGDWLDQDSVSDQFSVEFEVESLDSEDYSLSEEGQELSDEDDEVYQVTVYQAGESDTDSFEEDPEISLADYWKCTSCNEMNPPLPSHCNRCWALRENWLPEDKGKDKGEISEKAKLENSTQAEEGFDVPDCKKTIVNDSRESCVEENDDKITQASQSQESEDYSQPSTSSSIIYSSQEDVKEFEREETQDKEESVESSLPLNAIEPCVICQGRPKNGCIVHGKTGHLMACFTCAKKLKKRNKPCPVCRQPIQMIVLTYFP

[1] = biological target: T2, Flag-STIP (sip1/tuftelin interacting protein) (human) (UniProt Q9UBB9); assay: co-IP; two-step immunoprecipitation; U2OS cotransfected with Flag-STIP and Mdm2 or p53, 20 uM MG132 4 h; first anti-Flag M2 agarose (wash 150 mM NaCl), elution with Flag peptide in 250 mM NaCl; second anti-Mdm2, anti-p53 or control IgG with protein G-Sepharose; WB
T2 sequence: T1 sequence

[2] = biological target: T2, Flag-STIP (sip1/tuftelin interacting protein) (human); assay: co-IP; Flag-STIP transfected into U2OS or H1299 cells; lysate precipitated with anti-Flag antibody or control IgG (1 mg extract, 3 ug antibody, overnight 4 °C, protein G magnetic beads); endogenous partners detected by WB; in Figure 5D also after shRNA knock-down and 20 uM MG132 for 4 h

| Substance | binding (GST-STIP (human)) | binding [1] | binding [2] |
| --- | --- | --- | --- |
| His-USP7 (from UniProt Q93009 1-1102) (enzyme) | binds |  |  |
| Mdm2 expressed from pCMV-Mdm2 (from UniProt Q00987 1-491) (enzyme) |  | binds |  |
| Mdm2, endogenous (from UniProt Q00987 1-491) (enzyme) |  |  | binds |
| in vitro translated Mdm2 (from UniProt Q00987 1-491) (enzyme) | binds |  |  |

Continued, values first:

| binding (GST-STIP (human)) | binding [1] | binding [2] | Substance |
| --- | --- | --- | --- |
|  | binds | binds | USP7 (ubiquitin-specific protease 7), endogenous (from UniProt Q93009 1-1102) (enzyme) |
| binds |  |  | in vitro translated p53 (from UniProt P04637 1-393) |
|  | binds |  | p53 expressed from pCMV-p53 (from UniProt P04637 1-393) |
|  |  | binds | p53, endogenous (from UniProt P04637 1-393) |

Reference: PMC4741485
